Measured values: patent publication US20110172096A1, “Triazole Compounds, The Use Thereof and Preparations Containing These Compounds” (BASF SE, priority 2008, published 2011)
Some entries share one result that the patent states for a list of compounds.

Key:
[1] = test system: Sphaerotheca fuliginea; test: Curative activity against mildew of cucumber, greenhouse (Example G2, Sphrfu K1); type: in vivo; details: cucumber seedlings inoculated, sprayed the next day with 250 ppm aqueous preparation; untreated plants 90%
[2] = test system: Septoria tritici; test: Activity against the Septoria leaf blotch pathogen in the microtiter test (Example M1); type: cell-based; details: 31 ppm active compound, absorbance 405 nm on day 7 after inoculation, 18° C., active compound-free control = 100%
[3] = test system: Leptosphaeria nodorum; test: Activity against the glume blotch pathogen in the microtiter test (Example M2); type: cell-based; details: 31 ppm active compound, absorbance 405 nm on day 7 after inoculation, 18° C., relative to active compound-free control
[4] = test system: Erysiphe [syn. Blumeria] graminis forma specialis. tritici; test: Activity against mildew of wheat, greenhouse, protective spray (Example G1); type: in vivo; details: potted wheat seedlings sprayed with 250 ppm aqueous preparation, dusted with spores 24 h later, rated after 7 days; untreated plants 90% infected

SMILES	infection of the cotyledon area (mildew development, determined visually) [1]	relative growth of the pathogen [2]	relative growth of the pathogen [3]	infection of the entire leaf area (mildew development, determined visually) [4]
CC(C)(C)c1ccc(COCCCC(C(O)C(C)(C)C)n2cncn2)cc1 (single isomer, unassigned) [I.5a]	at most 5%	–	–	–
CC(C)(C)C(O)C(CCCOCc1c(F)cccc1Cl)n1cncn1 (centres unmarked) [I.18a]	–	at most 14%	at most 12%	–
CC(C)(C)C(O)C(CCCOCc1cc(Cl)ccc1F)n1cncn1 (centres unmarked) [I.17a]	–	at most 14%	at most 12%	–
CC(C)(C)C(O)C(CCCOCc1c(F)cccc1F)n1cncn1 (centres unmarked) [I.14a]	–	at most 14%	–	–
CC(C)(C)C(O)C(CCCOCc1ccc(F)cc1F)n1cncn1 (centres unmarked) [I.16b]	–	at most 14%	–	–
CC(C)(C)C(O)C(CCCOCc1ccc(Cl)cc1)n1cncn1 (centres unmarked) [I.3b]	–	at most 14%	–	–
CC(C)(C)C(O)C(CCCOc1ccc(F)cc1F)n1cncn1 (centres unmarked) [I.11b]	–	at most 14%	at most 12%	–
CC(C)(C)C(O)C(CCCOCc1ccc(Cl)cc1)n1cncn1 (single isomer, unassigned) [I.3a]	at most 5%	–	–	at most 15%
CC(C)(C)C(O)C(CCCOc1ccc(Cl)cc1F)n1cncn1 (centres unmarked) [I.7b]	–	at most 14%	at most 12%	–
CC(C)(C)C(O)C(CCCOc1c(F)cccc1Cl)n1cncn1 (centres unmarked) [I.10a]	–	at most 14%	at most 12%	–
CC(OCCCC(C(O)C(C)(C)C)n1cncn1)c1ccccc1F (centres unmarked) [I.13]	–	at most 14%	–	–
CC(C)(C)C(O)C(CCCOCc1ccccc1F)n1cncn1 (centres unmarked) [I.15a]	–	at most 14%	at most 12%	–
CC(C)(C)C(O)C(CCCOCc1cccc(F)c1F)n1cncn1 (centres unmarked) [I.19b]	–	at most 14%	–	–
CC(C)(C)C(O)C(CCCOc1cc(F)ccc1F)n1cncn1 (centres unmarked) [I.9b]	–	at most 14%	–	–
CC(C)(C)C(O)C(CCCOCc1ccccc1)n1cncn1 (single isomer, unassigned) [I.2a]	at most 5%	–	–	at most 15%
CC(C)(C)C(O)C(CCCOCc1cccc(Cl)c1F)n1cncn1 (centres unmarked) [I.20a, 7-(3-chloro-2-fluorobenzyloxy)-2,2-dimethyl-4-[1,2,4]triazol-1-yl-heptan-3-ol]	–	at most 14%	at most 12%	–
CC(C)(C)C(O)C(CCCOc1c(F)cccc1F)n1cncn1 (centres unmarked) [I.12a]	–	at most 14%	at most 12%	–
Cc1ccc(COCCCC(C(O)C(C)(C)C)n2cncn2)cc1 (single isomer, unassigned) [I.4a]	at most 5%	–	–	at most 15%
CC(OCCCC(C(O)C(C)(C)C)n1cncn1)c1ccccc1Cl (centres unmarked) [I.21a, 7-[1-(2-chlorophenyl)ethoxy]-2,2-dimethyl-4-[1,2,4]triazol-1-yl-heptan-3-ol]	–	at most 14%	at most 12%	–
CC(C)(C)C(O)C(CCCOc1cccc(F)c1F)n1cncn1 (centres unmarked) [I.8b]	–	at most 14%	–	–
